Reference: publication PMC10502012
No constants are given. Whether binding was seen depends on the method and setting. Binding seen in cells or lysates may run through a third protein. Binding calls can cover weak binding; strength is not graded here. Sequences can lack the tags named with a protein.

Target: Twin-Streptavidin-tagged chicken PHT1 (pull-down, wild type) (chicken)
Test: pull-down; transporter and TASL co-transfected in Expi293F; DDM/CHS lysate on Strep-Tactin beads, eluted with desthiobiotin; western blot with anti-GFP-HRP

binding: binds
B1: full-length human TASL, GFP-His-tagged (protein, UniProt Q9HAI6 1-301)
chain: MLSEGYLSGLEYWNDIHWSCASYNEQVAGEKEEETNSVATLSYSSVDETQVRSLYVSCKSSGKFISSVHSRESQHSRSQRVTVLQTNPNPVFESPNLAAVEICRDASRETYLVPSSCKSICKNYNDLQIAGGQVMAINSVTTDFPSESSFEYGPLLKSSEIPLPMEDSISTQPSDFPQKPIQRYSSYWRITSIKEKSSLQMQNPISNAVLNEYLEQKVVELYKQYIMDTVFHDSSPTQILASELIMTSVDQISLQVSREKNLETSKARDIVFSRLLQLMSTEITEISTPSLHISQYSNVNP
